# Test results published in patent publication US9133140B2, “Cycloalkylamne derivatives” (Daiichi Sankyo Company, Limited, priority 2008, dated 2015).
# For at least one compound, name, drawing or mass did not settle the structure.
# Molecular target: T1, human CaSR (Homo sapiens, UniProt P41180)
# T1 construct: TT cells are cell lines that express human CaSR; endogenous in cells; host or cells: TT cells (human medullary thyroid carcinoma cell line)
# T1 sequence (P41180 20-1078): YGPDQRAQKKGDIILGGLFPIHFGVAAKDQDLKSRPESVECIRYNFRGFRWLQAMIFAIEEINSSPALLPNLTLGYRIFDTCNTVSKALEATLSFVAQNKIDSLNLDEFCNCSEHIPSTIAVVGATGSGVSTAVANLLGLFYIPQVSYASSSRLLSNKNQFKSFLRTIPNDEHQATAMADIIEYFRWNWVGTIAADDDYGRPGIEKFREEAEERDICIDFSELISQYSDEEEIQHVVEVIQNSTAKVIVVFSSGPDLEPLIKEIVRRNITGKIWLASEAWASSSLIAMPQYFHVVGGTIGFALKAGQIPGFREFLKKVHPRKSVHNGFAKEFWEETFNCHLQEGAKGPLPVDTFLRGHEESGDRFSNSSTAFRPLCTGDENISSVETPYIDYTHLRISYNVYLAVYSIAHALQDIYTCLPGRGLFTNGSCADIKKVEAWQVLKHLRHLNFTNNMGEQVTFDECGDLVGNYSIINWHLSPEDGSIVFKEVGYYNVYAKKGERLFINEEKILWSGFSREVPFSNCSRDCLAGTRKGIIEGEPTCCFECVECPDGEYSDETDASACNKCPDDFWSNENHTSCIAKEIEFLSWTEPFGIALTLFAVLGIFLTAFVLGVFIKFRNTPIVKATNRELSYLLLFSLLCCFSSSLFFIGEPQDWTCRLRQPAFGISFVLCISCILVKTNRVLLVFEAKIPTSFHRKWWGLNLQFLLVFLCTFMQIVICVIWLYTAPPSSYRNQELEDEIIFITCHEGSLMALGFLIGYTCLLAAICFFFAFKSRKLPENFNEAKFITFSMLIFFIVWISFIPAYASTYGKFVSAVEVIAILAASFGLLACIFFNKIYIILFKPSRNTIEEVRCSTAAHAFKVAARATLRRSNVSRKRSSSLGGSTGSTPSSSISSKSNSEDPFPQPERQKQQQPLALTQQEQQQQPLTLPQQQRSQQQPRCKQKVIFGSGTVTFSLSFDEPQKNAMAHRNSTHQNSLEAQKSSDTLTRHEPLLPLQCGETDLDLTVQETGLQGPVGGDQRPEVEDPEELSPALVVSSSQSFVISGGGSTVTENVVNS
# Test: Human CaSR activity measurement test (intracellular calcium in TT cells)
# Assay type: cell-based
# Conditions: [EC50 of test compound]/[EC50 of Compound A], intracellular calcium fluorescence
# Description: It is reported that human medullary thyroid carcinoma cell lines TT cells are cell lines that express human CaSR, and when CaSR is activated by extracellular calcium ions or the like, intracellular calcium ion concentration increases (Endocrinology 137: 3842-3848, 1996). Accordingly, an activating action of the test compounds with respect to human CaSR was evaluated by using the change in intracellular calcium concentration of TT cells as an indicator. TT cells were inoculated onto a black well/clear bottom 96 well plate (poly-D-lysine coat: manufactured by BD biosciences), and were cultured for approximately 24 hours in a F-12 Nutrient Mixture (Kaighn's modification) culture media containing 10% calf serum and 0.5% antibiotic antimycotic. […] Subsequently, the above-mentioned plate was placed onto FlexStation (manufactured by Molecular Device) or FlexStation 3 (manufactured by Molecular Device), and fluorescence intensity before and after treatment with the test compound dissolved in a buffer for measurement (126 mM NaCl, 4 mM KCl, 1 mM MgCl2, 20 mM HEPES (pH 7.4), 5.6 mM glucose, 2 mM CaCl2) was measured. […] From the following equation, the human CaSR activity of each of the test compounds was calculated as the relative activity with respect to Compound A. Relative activity with respect to Compound A=[EC50 of test compound]/[EC50 of Compound A]
compound,measurement,value
"C[C@@H](N[C@H]1CC[C@@H](c2ccc(OCC(=O)O)cc2)C1)c1ccc(F)c2cc(F)ccc12 [Example 23, {4-[(1R,3S)-3-{[(1R)-1-(4,6-Difluoronaphthalen-1-yl)ethyl]amino}cyclopentyl]phenoxy}acetic acid]",Relative activity with respect to Compound A,0.12
